# Results from patent US20150219624A1, “METHODS FOR IDENTIFYING ANTI-CANCER COMPOUNDS” (MEMORIAL SLOAN KETTERING CANCER CENTER, priority 2013, published 2015).
# For at least one compound, name, drawing or mass did not settle the structure.
# Tested on: S6 phosphorylation and AKT (T308) phosphorylation
# Assay: Immunoblots of S6 and AKT phosphorylation in KOPT-K1 cells
# Assay type: cell-based, human
# Conditions: 25 nM, 48 hours
# Description: Immunoblots. Lysates were made using Laemli lysis buffer. 30 ug of protein was loaded onto SDS-PAGE gels then transferred onto Immobilon-FL Transfer Membranes (Millipore IPFL00010). The antibodies used were α-Tubulin (Sigma T5168), β-actin (Sigma A5316), Myc (Santa Cruz Biotechnology sc-40), p-Akt 308 (Cell Signaling 9275), Akt (Cell Signaling 9272), S6 (Cell Signaling 2317), and p-S6 (Cell Signaling 2215), Notch1 (Cell signaling 3608), Myb (Santa Cruz Biotechnology, sc-517), CDK6 (Cell Signaling 3136), EZH2 (Cell Signaling 5246), Mdm2 (Santa Cruz Biotechnology, sc-965), Bcl2 (Santa Cruz Biotechnology, sc-509), Run×1 (Cell Signaling 4336), and GAPDH (Cell Signaling 5174).
# E) Simplified diagram of rapamycin and silvestrol mechanism of action.
smiles,measurement,value
CO[C@H]1C[C@@H]2CC[C@@H](C)[C@@](O)(O2)C(=O)C(=O)N2CCCC[C@H]2C(=O)O[C@H]([C@H](C)C[C@@H]2CC[C@@H](O)[C@H](OC)C2)CC(=O)[C@H](C)/C=C(\C)[C@@H](O)[C@@H](OC)C(=O)[C@H](C)C[C@H](C)/C=C/C=C/C=C/1C [Rapamycin],phosphorylation of AKT (T308),feedback activation of AKT (T308)
same,ribosomal S6 phosphorylation / S6 kinase activity,loss of ribosomal S6 phosphorylation
